Where a name gives a salt, the structure may show the parent alone. Some of the results follow. Repeats in this data set agree poorly, so a single value says little.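 PR50, a 50-repeat proline–arginine dipeptide protein from C9ORF72 (ALS/FTD), was expressed by transfection in U-2 OS human cells stably carrying a GFP sensor with import and classical export signals. Per-well nuclear-minus-cytoplasm GFP, normalized between in-plate DMSO (low) and PR-only (high), was scored versus other test wells; compounds well below zero were hits reversing PR.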
The compounds below were run on U-2 OS NCT-C biosensor cells expressing PR50 (assay: Z-score of normalised NCT-C biosensor translocation index in PR50-expressing cells; higher = more nuclear biosensor (more disrupted nuclear export)). Conditions: 3 µM; 24 h.

Row | Compound | Z-score
1 | O=c1oc2c(O)c(O)cc3c(=O)oc4c(O)c(O)cc1c4c23 [Ellagic Acid] | inactive: -1.82
2 | O=c1oc2c(O)c(O)cc3c(=O)oc4c(O)c(O)cc1c4c23 [Ellagic acid] | inactive: 0.178
3 | CC[C@@H]1C(=O)OC[C@@H]1Cc1cncn1C [(+)-Pilocarpine hydrochloride] | inactive: 0.909
4 | CC[C@@H]1C(=O)OC[C@@H]1Cc1cncn1C [Pilocarpine·HCl] | inactive: -1.91
5 | CC[C@@H]1C(=O)OC[C@@H]1Cc1cncn1C [Pilocarpine] | inactive: -0.236
6 | CC[C@@H]1C(=O)OC[C@@H]1Cc1cncn1C [Pilocarpine nitrate salt] | inactive: 0.575
7 | CN1C(=O)CC[C@H]1c1cccnc1 [(-)-Cotinine] | inactive: -0.653
8 | CC(C)=CCC(OC(=O)C=C(C)C)C1=CC(=O)c2c(O)ccc(O)c2C1=O (stereo not drawn) [(β,β-Dimethylacryl) Shikonin] | inactive: 0.666
9 | CCn1c(=O)[nH]c2cc(Cl)c(Cl)cc21 | inactive: -0.536
10 | O=C(Nc1cc(C(F)(F)F)cc(C(F)(F)F)c1)Nc1c(Br)cc(Br)cc1-c1nn[nH]n1 | inactive: -0.12
11 | OC[C@H]1O[C@@H](n2cnc3c(N[C@H]4CCC[C@@H]4O)ncnc32)[C@H](O)[C@@H]1O | inactive: -0.269
12 | NS(=O)(=O)c1cc2c(cc1C(F)(F)F)NCNS2(=O)=O [Hydroflumethiazide] | inactive: 0.553
13 | COC1(C2=NCCN2)COc2ccccc2O1 (stereo not drawn) | inactive: -0.196
14 | N[C@@H](Cc1c[nH]c2ccccc12)C(=O)O [L-Tryptophan] | inactive: -0.842
15 | Nc1cc(=O)[nH]c(N)n1 [2,4-Diamino-6-hydroxypyrimidine] | inactive: -0.668
16 | OCc1c[nH]c2ccccc12 [Indole-3-carbinol] | inactive: -0.145
17 | O=C(/C=C/c1ccc(O)cc1)c1ccc(O)cc1O [Isoliquiritigenin] | inactive: 0.788
18 | N#Cc1ccc(-c2csc(NN=C3CCCC3)n2)cc1 [Remodelin hydrobromide] | inactive: -0.236
19 | CS(=O)(=O)OCCCCOS(C)(=O)=O [Busulfan] | inactive: -0.162
20 | Cc1[nH]c(=O)c(C#N)cc1-c1ccc2nccn2c1 [Olprinone hydrochloride] | inactive: -1.03
21 | CC(=O)O[C@H]1C(=O)[C@@]2(C)[C@H]([C@H](OC(=O)c3ccccc3)[C@]3(O)C[C@H](OC(=O)[C@H](O)[C@@H](NC(=O)c4ccccc4)c4ccccc4)C(C)=C1C3(C)C)[C@]1(OC(C)=O)CO[C@@H]1C[C@@H]2O [Taxol] | inactive: 0.805
22 | CC(=O)O[C@H]1C(=O)[C@@]2(C)[C@H]([C@H](OC(=O)c3ccccc3)[C@]3(O)C[C@H](OC(=O)[C@H](O)[C@@H](NC(=O)c4ccccc4)c4ccccc4)C(C)=C1C3(C)C)[C@]1(OC(C)=O)CO[C@@H]1C[C@@H]2O [Paclitaxel (Taxol)] | inactive: 0.0236
23 | COc1cccc2c1C(=O)c1c(O)c3c(c(O)c1C2=O)C[C@@](O)(C(=O)CO)C[C@@H]3O[C@H]1C[C@H](N)[C@@H](O)[C@H](C)O1 [Epirubicin·HCl] | inactive: -0.568

Part of the list above, with tabs:
Row	Compound	Z-score
6	CC[C@@H]1C(=O)OC[C@@H]1Cc1cncn1C [Pilocarpine nitrate salt]	inactive: 0.575
8	CC(C)=CCC(OC(=O)C=C(C)C)C1=CC(=O)c2c(O)ccc(O)c2C1=O (stereo not drawn) [(β,β-Dimethylacryl) Shikonin]	inactive: 0.666
9	CCn1c(=O)[nH]c2cc(Cl)c(Cl)cc21	inactive: -0.536
23	COc1cccc2c1C(=O)c1c(O)c3c(c(O)c1C2=O)C[C@@](O)(C(=O)CO)C[C@@H]3O[C@H]1C[C@H](N)[C@@H](O)[C@H](C)O1 [Epirubicin·HCl]	inactive: -0.568

(listing goes on)

Row | Compound | Z-score
24 | N=C(N)c1ccc(N)cc1 [4-Amino benzamidine diHCl] | inactive: 0.0978
25 | CCCN(CCC)CCc1cccc2c1CC(=O)N2 [Ropinirole hydrochloride] | inactive: -0.777
26 | CCCN(CCC)CCc1cccc2c1CC(=O)N2 [Ropinirole·HCl] | inactive: -0.751
27 | C=C(C)[C@@H]1CC[C@]2(CO)CC[C@]3(C)[C@H](CC[C@@H]4[C@@]5(C)CC[C@H](O)C(C)(C)[C@@H]5CC[C@]43C)[C@@H]12 [Betulin] | inactive: 0.143
28 | CCCCC[C@H](O)/C=C/[C@H]1[C@H](O)CC(=O)[C@@H]1C/C=C\CCCC(=O)O [Prostaglandin E2] | inactive: -0.666
29 | CCCCC[C@H](O)/C=C/[C@H]1[C@H](O)CC(=O)[C@@H]1C/C=C\CCCC(=O)O [Dinoprostone] | inactive: -1.18
30 | CCCn1c(=O)c2[nH]c(C3CCCC3)nc2n(CCC)c1=O [8-Cyclopentyl-1,3- dipropylxanthine] | inactive: -0.26
31 | N/C(=N\C(=O)c1nc(Cl)c(N)nc1N)NCc1ccccc1 [Benzamil hydrochloride] | inactive: 2.49
32 | O=C(CCNNC(=O)c1ccncc1)NCc1ccccc1 [Nialamide] | inactive: 0.131
33 | Cc1nc2ccccn2c(=O)c1CCN1CCC(C(=O)c2ccc(F)cc2)CC1 [Pirenperone] | inactive: 0.168
34 | Cc1ccccc1N1CCN(CCc2nnc3n2CCCC3)CC1 [Dapiprazole hydrochloride] | inactive: -0.268
35 | CCC(=O)c1ccc2c(c1)N(CCCN(C)C)c1ccccc1S2 [Propionylpromazine HCl] | inactive: -0.738
36 | Nc1ccc(-c2ccc3ncc4ccc(=O)n(-c5cccc(C(F)(F)F)c5)c4c3c2)cn1 [Torin2] | inactive: 2.01
37 | NC(=O)c1cnccn1 [Pyrazine carboxamide] | inactive: -0.578
38 | NC(=O)c1cnccn1 [Pyrazinamide] | inactive: -0.0732
39 | COc1cc2nc(N3CCCC3)nc(NCCCCCN3CCCC3)c2cc1OC [UNC0379  trifluoroacetate salt] | inactive: -0.0306
40 | O=C(c1cccc(-c2ccc(-c3cn(C(=O)N4CCCCC4c4ccccc4)nn3)cc2)c1)N1CCCCC1 (stereo not drawn) | inactive: 0.639
41 | Oc1ccc(-c2nc(-c3ccc(F)cc3)c(-c3ccncc3)[nH]2)cc1 | inactive: 2.53
42 | O=c1n(CCCN2CCN(c3cccc(Cl)c3)CC2)nc2ccccn12 [Trazodone hydrochloride] | inactive: -0.995
43 | O=c1n(CCCN2CCN(c3cccc(Cl)c3)CC2)nc2ccccn12 [Trazodone·HCl] | inactive: 0.421
44 | Cc1ccccc1C(C(=O)NC1CCCCC1)N(C(=O)Cn1ccnc1C)c1cccc(F)c1 (stereo not drawn) | inactive: 0.136
45 | CCOc1cc(C(=O)Nc2ccc(Cl)c(-c3nc4ccccc4[nH]3)c2)cc(OCC)c1OCC | inactive: -1.81
46 | CC1(C)S[C@@H]2[C@H](NC(=O)[C@H](N)c3ccccc3)C(=O)N2[C@H]1C(=O)O [Ampicillin Trihydrate] | inactive: 0.0491

Row | Compound | Z-score
47 | C=C[C@H]1CN2CC[C@H]1C[C@H]2[C@H](O)c1ccnc2ccc(OC)cc12 [Quinine sulfate] | inactive: 0.257
48 | C=C[C@H]1CN2CC[C@H]1C[C@H]2[C@H](O)c1ccnc2ccc(OC)cc12 [Quinine·HCl·2H2O] | inactive: 0.0763
49 | Nc1cc(N2CCCCC2)nc(N)[n+]1[O-] [Minoxidil] | inactive: -0.445
50 | COc1ccc2cc([C@H](C)C(=O)O)ccc2c1 [(-)-Naproxen sodium salt] | inactive: 0.176
51 | COc1ccc2cc([C@H](C)C(=O)O)ccc2c1 [Naproxen] | inactive: 0.157
52 | CC1=CC(=O)CC(C)(C)C1(O)/C=C/C(C)=C\C(=O)O (racemic) [(±)-Abscisic acid] | inactive: 0.194
53 | C[C@]12CCC(=O)C=C1[C@@H]1C[C@@H]1[C@H]1[C@@H]3[C@@H]4C[C@@H]4[C@@]4(CCC(=O)O4)[C@@]3(C)CC[C@@H]12 [Drospirenone] | inactive: -0.246
54 | OC1(c2ccc(Cl)cc2)CCN(Cc2c[nH]c3ccccc23)CC1 | inactive: -0.687
55 | N#Cc1c(N2CCCC2)nc(N)c2c(N)nc(N3CCCC3)cc12 | inactive: 0.059
56 | COc1ccc(C[C@H]2c3cc(OC)c(OC)cc3CC[N+]2(C)C)cc1OC [Laudanosine methiodide] | inactive: 0.075
57 | O=C(O)c1cc(/N=N/c2ccc(S(=O)(=O)Nc3ccccn3)cc2)ccc1O [Sulfasalazine] | inactive: 0.676
58 | O=C(O)c1cc2cc(Cc3cccnc3)ccc2o1 [Furegrelate sodium salt] | inactive: -0.831
59 | C#C[C@]1(O)CC[C@H]2[C@@H]3CCC4=CC(=O)CC[C@@H]4[C@H]3C(=C)C[C@@]21CC [Etonogestrel] | inactive: 0.384
60 | O=C(O)c1cc(N(Cc2ccccc2O)Cc2cc(O)ccc2O)ccc1O [Lavendustin A] | inactive: 0.934
61 | CN/C(=N\CCSCc1nc[nH]c1C)NC#N [Cimetidine] | inactive: -0.271
62 | c1ccc(C2CN3CCSC3=N2)cc1 (single isomer, unassigned; (-)) [(-)-Tetramisole hydrochloride] | inactive: -0.638
63 | C/C(=C\C(=O)OCCCCCCCCC(=O)O)C[C@@H]1OC[C@H](C[C@@H]2O[C@H]2[C@@H](C)[C@H](C)O)[C@@H](O)[C@H]1O [Mupirocin] | inactive: -0.49
64 | C[C@@H]1C[C@H]2[C@@H]3CCC4=CC(=O)C=C[C@]4(C)[C@@]3(Cl)[C@@H](O)C[C@]2(C)[C@@]1(OC(=O)c1ccco1)C(=O)CCl [Mometasone Furoate] | inactive: -0.0554
65 | O=C(O)[C@H](CC(=O)N1C[C@H]2CCCC[C@H]2C1)Cc1ccccc1 [Mitiglinide calcium] | inactive: -0.0263
66 | C[C@]12CCC3=C4CCC(=O)C=C4CC[C@H]3[C@@H]1CC[C@@]2(O)CC#N [Dienogest] | inactive: -0.327
67 | c1coc(CNc2ncnc3[nH]cnc23)c1 [Kinetin] | inactive: -0.211
68 | COc1cc2ncnc(-n3nc(-c4ccccn4)nc3N)c2cc1OC | inactive: 0.2

From the supplement of paper PMC8616043
